Literature values as cited in EP2814319B1, “ANTIMICROBIAL COMPOSITION CONTAINING PHOTOCHEMICALLY STABLE SILVER COMPLEXES” (NM Tech Nanomaterials and Microdevices Technology Ltd., priority 2012, dated 2013).
For at least one compound, name, drawing or mass did not settle the structure.

System: Staphylococcus epidermidis
Conditions: cited from earlier work

Row | Compound | development of resistance
1 | CN(C)c1ccc(O)c2c1C[C@H]1C[C@H]3[C@H](N(C)C)C(O)=C(C(N)=O)C(=O)[C@@]3(O)C(O)=C1C2=O [minocycline] | developed resistance
2 | CO[C@H]1/C=C/O[C@@]2(C)Oc3c(C)c(O)c4c(O)c(c(/C=N/N5CCN(C)CC5)c(O)c4c3C2=O)NC(=O)/C(C)=C\C=C\[C@H](C)[C@H](O)[C@@H](C)[C@@H](O)[C@@H](C)[C@H](OC(C)=O)[C@@H]1C [rifampicin] | developed resistance
